Reference: patent US20180291070A1, “PEPTIDES, AND USES THEREOF” (priority 2015, published 2018)
Not every detail of the peptide structures is certain; ends, links or a residue may be inferred. Ends that are not written are not given here.

System: GLUT4
Test: GLUT4myc translocation in L6 myotubes
Assay type: cell-based
Details: 200 μM, 3 hours
Source text: We determined the effect of six synthetic peptides (SP1-6) and four peptide compositions on in vitro GLUT4 translocation using the L6 rat skeletal muscle cell line. A clone of the L6 cell line containing overexpression of GLUT4 tagged with a c-myc epitope (courtesy of Prof. Amira Klip, Hospital for Sick Children, Toronto) was used to investigate the efficacy of each synthetic peptide and peptide composition for effects on GLUT4 translocation in a dose-response design.
L6-GLUT4myc cells were grown in 10% FBS and 2 μg/ml blasticidin. Cells were grown for 48-72 hours before being seeded in 24-well plates at 15,000 cells per well in 2% FBS and allowed to differentiate for 6 to 8 days prior to experimentation.
L6-GLUT4myc cells were serum-starved for three hours prior to incubation with 100 nM of insulin for 30 mins, or 200, 20, 2.0 and 0.2 μM of SP, and 2, 1, 0.5 and 0.25 mg/ml of peptide composition for 3 hours respectively. […]
The quantity of myc-tagged GLUT4 at the cell surface was measured by antibody-coupled colorimetric assay. […] To determine GLUT4 translocation to cell surface, a measured aliquot of each condition was determined spectrophotometrically on a plate reader using absorbance at 492 nm. […]

DTFYNAAWDPSNR [SP1]
GLUT4 translocation: tended to decrease translocation
